The target in data set [1] is PUF-E R1(SYxxR), R2(SYxxE), R3(NRxxQ), R5(SRxxE), R7(SYxxR), R8(SYxxE) (Homo sapiens) (UniProt Q14671). As to the kind of experiment: binding assay. The conditions noted are these: yeast three-hybrid; control RNA (WT in FIG. 29C); protein in cells; protein details: Gal4 AD fusion.
Data set [2] deals with PUF-D R1(SRxxE), R3(SYxxR), R4(SYxxE), R5(NRxxQ), R6(SYxxR) (Homo sapiens) (UniProt Q14671). The data set can be described thus: binding assay. The conditions noted are these: yeast three-hybrid; control RNA (WT in FIG. 29C); protein in cells; protein details: Gal4 AD fusion.
Data set [3] deals with T1, ASRE(WT) (PUM1 PUF-PIN SMG6 fusion) (Homo sapiens) (UniProt Q14671).
T1 sequence: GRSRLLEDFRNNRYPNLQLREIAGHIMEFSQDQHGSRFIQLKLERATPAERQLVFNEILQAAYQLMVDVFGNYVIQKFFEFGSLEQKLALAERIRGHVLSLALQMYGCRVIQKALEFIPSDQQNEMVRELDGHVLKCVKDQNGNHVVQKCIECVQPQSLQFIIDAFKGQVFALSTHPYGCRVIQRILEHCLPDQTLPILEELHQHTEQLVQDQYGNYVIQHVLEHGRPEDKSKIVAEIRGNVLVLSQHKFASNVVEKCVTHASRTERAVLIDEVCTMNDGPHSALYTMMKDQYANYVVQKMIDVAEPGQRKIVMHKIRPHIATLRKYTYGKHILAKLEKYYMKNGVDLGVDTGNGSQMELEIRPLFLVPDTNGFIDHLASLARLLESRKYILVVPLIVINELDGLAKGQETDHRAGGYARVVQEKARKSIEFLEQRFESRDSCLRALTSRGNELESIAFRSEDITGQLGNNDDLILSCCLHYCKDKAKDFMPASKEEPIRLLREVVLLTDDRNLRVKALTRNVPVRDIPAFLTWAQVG
The data set can be described thus: enzyme reaction in vitro. The conditions noted are these: no cleavage; purified recombinant protein; protein details: His6 (removable); variant of NRE RNA.

The target in data set [4] is T2, PUF-R6(SYxxR) N1043S/Q1047R (Homo sapiens) (UniProt Q14671).
T2 sequence: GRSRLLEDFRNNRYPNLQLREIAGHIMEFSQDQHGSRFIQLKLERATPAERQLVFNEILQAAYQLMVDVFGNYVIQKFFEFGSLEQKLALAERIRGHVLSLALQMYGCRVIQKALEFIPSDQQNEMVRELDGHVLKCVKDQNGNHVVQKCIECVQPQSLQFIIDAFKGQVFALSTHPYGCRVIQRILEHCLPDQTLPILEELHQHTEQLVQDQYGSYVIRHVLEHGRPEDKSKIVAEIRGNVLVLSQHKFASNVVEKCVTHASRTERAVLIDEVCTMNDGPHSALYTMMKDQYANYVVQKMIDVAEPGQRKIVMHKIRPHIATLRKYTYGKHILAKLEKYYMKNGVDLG
As to the kind of experiment: binding assay. The conditions noted are these: yeast three-hybrid; strongest target; protein in cells; protein details: Gal4 AD fusion; variant of NRE RNA.

The values below come from US20170137803.

For some of these results: No signal at the amounts used counts as a negative. For some of these results: Where a protein sequence is shown, tags need not be part of it. For some of these results: Results from cells or extracts need not show a direct contact. For some of these results: For at least one entry, the source does not settle the construct or the ends of the probe.

For UGUAUAUA [NRE RNA], the binding result in data set [1] and in data set [2] was “no binding” in each case. Consider UUGAUAUA [7u6g RNA], for which, in data set [3], the “activity on this sequence” value was “not active”. As to UGCAUAUA [C3 RNA], in data set [4], the binding result is reported as “binds”.
